# The inconclusive results got no clear call from the source; some entries with a clear call stand among them for comparison. For some of these results: A potency beside an inconclusive call is a rough fit, not a confirmed value. The source made the active and inactive calls. The call rests on the fitted dose curve; in most records, active means well fitted curve in the direction sought with a large enough effect; inconclusive means small, poorly fitted or top-dose-only effect, or another doubt; inactive means no such curve, though single readings can be large; an effect the other way counts as inactive or inconclusive.
# Assays:
# [1] = Quantitative High-Throughput drug screen in 47 multiple myeloma cell lines against the NCATS MIPE library collection: KMM1_JCRB cell viability assay (AID 1918960); conditions: KMM1 myeloma viability, CellTiter-Glo ATP luminescence, 48 h; viability (% of DMSO): at 45.8 µM (top of the series); further: nearly all actives have a fitted effect of over 30% in size
# Summary of the method: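 Here, 48 h treatment with MIPE 4.0 agents at 37 °C preceded an ATP luminescence read. Plating density was 500 cells per well.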
# [2] = Quantitative High-Throughput drug screen in 47 multiple myeloma cell lines against the NCATS MIPE library collection: JIM1_ECACC cell viability assay (AID 1918964); conditions: JIM1 myeloma viability, CellTiter-Glo ATP luminescence, 48 h; viability (% of DMSO): at 45.8 µM (top of the series)
# Summary of the method: (§1)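 Myeloma cell lines, 500 cells per well, exposed to MIPE 4.0 library compounds for 48 h at 37C, 5% CO2. Viability from ATP by CellTiter-Glo luminescence; normalised to DMSO (100%) and media-only (0%) wells.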
# [3] = Quantitative High-Throughput drug screen in 47 multiple myeloma cell lines against the NCATS MIPE library collection: ARD_JJKsccE7 cell viability assay (AID 1918929); conditions: ARD myeloma cell line viability, CellTiter-Glo, 48 h; viability: at 45.8 µM (top of the series) unless noted
# Summary of the method: as §1
# [4] = Quantitative High-Throughput drug screen in 47 multiple myeloma cell lines against the NCATS MIPE library collection: Karpas417_ECACC cell viability assay (AID 1918961); conditions: Karpas417 myeloma viability, CellTiter-Glo ATP luminescence, 48 h; viability (% of DMSO): at 45.8 µM (top of the series) unless noted
# Summary of the method: as §1
# [5] = Quantitative High-Throughput drug screen in 47 multiple myeloma cell lines against the NCATS MIPE library collection: KHM11_PLB cell viability assay (AID 1918962); conditions: KHM11 myeloma cell viability, CellTiter-Glo ATP luminescence, 48 h; series mostly up to 45.8 µM; further: nearly all actives have a fitted effect of over 35% in size
# Summary of the method: as §1
# [6] = Quantitative High-Throughput drug screen in 47 multiple myeloma cell lines against the NCATS MIPE library collection: JIM3_ECACC cell viability assay (AID 1918963; further: nearly all actives have a fitted effect of over 35% in size); conditions: JIM3 myeloma viability, CellTiter-Glo ATP, 48 h; series mostly up to 45.8 µM
# Summary of the method: as §1
# [7] = Quantitative High-Throughput drug screen in 47 multiple myeloma cell lines against the NCATS MIPE library collection: Karpas620_DSMZ cell viability assay (AID 1918959); conditions: Karpas620 myeloma viability, CellTiter-Glo ATP luminescence, 48 h; viability (% of DMSO): at 45.8 µM (top of the series); further: nearly all actives have a fitted effect of over 30% in size
# Summary of the method: as §1
# [8] = Quantitative High-Throughput drug screen in 47 multiple myeloma cell lines against the NCATS MIPE library collection: INA6_PLB cell viability assay (AID 1918965; further: nearly all actives have a fitted effect of over 55% in size); conditions: INA6 myeloma viability, CellTiter-Glo ATP luminescence, 48 h; series mostly up to 45.8 µM
# Summary of the method: as §1
# Potency means the concentration at half of the fitted maximal effect.
smiles,measurement,setting,value
Oc1cc(-c2nc(-c3ccccc3)[nH]c2-c2ccncc2)ccc1Cl,Potency,[1],active: 1.87 µM
same,Potency,[2],"inconclusive: 1.48 µM [cytotoxic, full curve, poor fit]"
C[C@@H](N)C1CCC(C(=O)Nc2ccncc2)CC1 (stereo partly specified),Potency,[3],"inconclusive: 10.5 µM [rising, single point]"
same,Potency,[4],"inconclusive: 0.0021 µM [cytotoxic, full curve, poor fit]"
same,Potency,[5],"inconclusive: 16.6 µM [cytotoxic, single point]"
same,Potency,[6],"inconclusive: 7.43 µM [cytotoxic, partial curve, poor fit]"
same,Potency,[2],"inconclusive: 0.0037 µM [rising, full curve, poor fit]"
CN1CC[C@@H](c2c(O)cc(O)c3c(=O)cc(-c4ccccc4Cl)oc23)[C@@H](O)C1,Potency,[4],active: 0.0187 µM
C1CCC(C(CC2CCCCN2)C2CCCCC2)CC1 (stereo unspecified),Potency,[7],active: 14.8 µM
same,Potency,[4],active: 18.7 µM
same,Potency,[5],active: 11.8 µM
same,Potency,[2],active: 20.9 µM
COc1ccc(S(=O)(=O)Nc2cc(-c3c(O)ccc4ccccc34)c(O)c3ccccc23)cc1,Potency,[4],active: 1.66 µM
same,Potency,[5],active: 14.8 µM
same,Potency,[2],active: 3.32 µM
OC(Cn1cncn1)(Cn1cncn1)c1ccc(F)cc1F,Potency,[3],inactive
same,Potency,[4],"inconclusive: 18.7 µM [rising, partial curve, poor fit]"
same,Potency,[5],"inconclusive: 9.35 µM [cytotoxic, partial curve, poor fit]"
same,Potency,[2],"inconclusive: 0.0093 µM [cytotoxic, full curve, poor fit]"
same,Potency,[8],inactive
O=C(CCCCCCNC(=O)c1cnc(N(c2ccccc2)c2ccccc2)nc1)NO,Potency,[7],active: 5.9 µM
same,Potency,[4],active: 0.59 µM
same,Potency,[5],active: 10.5 µM
same,Potency,[2],active: 4.69 µM
same,Potency,[8],active: 2.64 µM
CC(C)c1nn(-c2c(Cl)cccc2Cl)c2nc(Cc3ccc(OCCO)cc3)[nH]c(=O)c12,Potency,[3],inactive
same,Potency,[4],inactive
same,Potency,[2],"inconclusive: 0.662 µM [rising, full curve, poor fit]"
COc1ccc(-c2cc3c(C)nc(N)nc3n(C3CCC(OCCO)CC3)c2=O)cn1 (stereo unspecified),Potency,[2],active: 0.0074 µM
Cc1nc(NC(=O)N2CCC[C@@H]2C(N)=O)sc1-c1csc(C(C)(C)C)n1,Potency,[4],active: 1.05 µM
same,Potency,[5],active: 3.72 µM
same,Potency,[2],active: 1.32 µM
COc1c(C)c2c(c(O)c1CC=C(C)CCC(=O)O)C(=O)OC2,Potency,[3],"inconclusive: 3.72 µM [cytotoxic, partial curve, poor fit]"
same,Potency,[4],"inconclusive: 14.8 µM [cytotoxic, partial curve, poor fit]"
same,Potency,[5],"inconclusive: 1.05 µM [cytotoxic, full curve, poor fit]"
same,Potency,[2],active: 9.35 µM
Oc1c(Cl)cc(Cl)c2cccnc12,Potency,[1],"inconclusive: 16.6 µM [cytotoxic, partial curve, poor fit]"
same,Potency,[4],"inconclusive: 11.8 µM [cytotoxic, partial curve, poor fit]"
same,Potency,[2],active: 8.33 µM
O=C(CCCN1CCN(c2ccc(F)cc2)CC1)NC1c2ccccc2CSc2ccccc21 (stereo unspecified),Potency,[1],active: 4.69 µM
same,Potency,[4],active: 8.33 µM
same,Potency,[5],active: 4.18 µM
same,Potency,[2],"inconclusive: 6.62 µM [cytotoxic, partial curve, poor fit]"
COC(=O)Nc1nc2ccc(C(=O)c3cccs3)cc2[nH]1,Potency,[4],"inconclusive: 1.66 µM [cytotoxic, full curve, poor fit]"
same,Potency,[5],"inconclusive: 33.2 µM [cytotoxic, single point]"
same,Potency,[2],active: 0.001 µM

# Reference: PubChem BioAssay (NCATS)
